Assay results taken from paper PMC12094911.
These are yes or no findings as the source states them, for the method shown. In cells and extracts the contact can be indirect. Some entries that bind do so weakly or less than the wild type.

Protein sequences, listed by entry. Tags and fused reporters are not part of them. Residues count along the entry.
UniProt P84022: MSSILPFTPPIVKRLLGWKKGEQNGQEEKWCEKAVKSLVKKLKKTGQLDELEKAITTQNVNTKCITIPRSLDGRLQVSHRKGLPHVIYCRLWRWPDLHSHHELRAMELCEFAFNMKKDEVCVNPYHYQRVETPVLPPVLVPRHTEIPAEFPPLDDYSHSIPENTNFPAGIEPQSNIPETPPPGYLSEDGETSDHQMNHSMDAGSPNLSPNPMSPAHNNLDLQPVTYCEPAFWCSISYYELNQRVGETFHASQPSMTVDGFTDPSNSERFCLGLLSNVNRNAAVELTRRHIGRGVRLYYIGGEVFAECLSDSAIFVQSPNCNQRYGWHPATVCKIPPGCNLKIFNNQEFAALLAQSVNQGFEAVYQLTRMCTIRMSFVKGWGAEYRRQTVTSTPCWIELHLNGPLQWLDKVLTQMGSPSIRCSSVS
UniProt Q16665: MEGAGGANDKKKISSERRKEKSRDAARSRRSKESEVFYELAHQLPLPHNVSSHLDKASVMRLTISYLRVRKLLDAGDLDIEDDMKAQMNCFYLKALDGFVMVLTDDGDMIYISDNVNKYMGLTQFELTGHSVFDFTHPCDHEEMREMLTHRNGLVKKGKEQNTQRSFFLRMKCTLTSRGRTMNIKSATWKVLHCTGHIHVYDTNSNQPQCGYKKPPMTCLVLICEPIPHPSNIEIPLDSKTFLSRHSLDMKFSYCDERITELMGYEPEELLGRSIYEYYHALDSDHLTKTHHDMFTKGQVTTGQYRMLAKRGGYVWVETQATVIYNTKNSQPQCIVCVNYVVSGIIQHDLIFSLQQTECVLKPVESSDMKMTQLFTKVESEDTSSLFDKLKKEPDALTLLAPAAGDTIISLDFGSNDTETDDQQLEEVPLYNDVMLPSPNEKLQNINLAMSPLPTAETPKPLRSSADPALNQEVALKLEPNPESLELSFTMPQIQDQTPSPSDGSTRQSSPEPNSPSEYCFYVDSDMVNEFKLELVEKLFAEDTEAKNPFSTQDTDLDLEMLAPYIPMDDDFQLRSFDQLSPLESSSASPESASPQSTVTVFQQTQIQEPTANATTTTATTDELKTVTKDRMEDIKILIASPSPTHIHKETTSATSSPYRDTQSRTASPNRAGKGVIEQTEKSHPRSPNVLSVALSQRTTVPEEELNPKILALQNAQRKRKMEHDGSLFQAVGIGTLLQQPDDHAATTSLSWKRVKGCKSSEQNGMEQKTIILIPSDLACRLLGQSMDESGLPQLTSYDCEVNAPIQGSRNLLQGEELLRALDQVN
UniProt P01137, residues 279-390: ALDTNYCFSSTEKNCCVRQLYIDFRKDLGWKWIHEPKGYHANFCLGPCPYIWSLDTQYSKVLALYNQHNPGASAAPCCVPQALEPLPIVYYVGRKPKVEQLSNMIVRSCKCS

What was measured:
[1] = target: Smad3 (human (endogenous in PANC-1)) (UniProt P84022); experiment: co-IP; immunoprecipitation with Smad3 antibody, blot for HIF-1α; normoxic and hypoxic conditions, with and without TGF-β1 stimulation
[2] = target: Hypoxia-inducible factor-1α (human (endogenous in PANC-1)) (UniProt Q16665); experiment: co-IP; cell lysates incubated with anti-HIF-1α antibodies overnight at 4°C, protein A/G magnetic beads, washed three times with ice-cold PBS; blots with anti-TGF-β and Smad3 antibodies

Substance | binding [1] | binding [2]
Hypoxia-inducible factor-1α (from UniProt Q16665 1-826) | binds | –
Transforming growth factor-β1 (from UniProt P01137 279-390) | – | binds
